# Measured values reported in PubChem BioAssay AID504834 (National Center for Advancing Translational Sciences (NCATS), 2011).
# Screen size: about 320,000 compounds; about 22,000 (6.9%) were called active. The shares of active, inactive and inconclusive entries below differ from those in the screen. The call rests on the fitted dose curve; in most records, active means well fitted inhibition curve with a large enough effect; inconclusive means small, poorly fitted or top-dose-only effect, or another doubt; inactive means no such curve, though single readings can be large or run the other way. Potencies beside an inconclusive call are fits to weak or partial responses and may not hold up.
# Experiment: Primary qHTS for delayed death inhibitors of the malarial parasite plastid, 96 hour incubation
# Conditions: P. falciparum luciferase reporter growth; series mostly up to 28.7 µM
# How it was run: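 Cell-based qHTS: luciferase-tagged P. falciparum in erythrocytes (2% hematocrit, 0.05% parasitemia final) incubated with compounds for 96 hours, 37 C, 5% CO2; luciferase detection reagent then added and luminescence measured.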
# Potency means the concentration at half of the fitted maximal effect.
row,Structure (SMILES),Potency
1,CC(C)c1cc(C(=O)N/N=C/c2ccoc2)c(O)c(C(C)C)c1,"inconclusive: 18.5 µM [inhibitor, single point]"
2,C[N+]1(C)[C@@H]2CC[C@H]1CC(OC(=O)C(c1ccccc1)c1ccccc1)C2 (some centres undefined),active: 3.29 µM
3,Cc1ccc(/C=N/NC(=S)NC2CCCCC2)o1,"inconclusive: 2.33 µM [inhibitor, full curve]"
4,CC(Cc1ccco1)NC(=O)c1cccc(S(=O)(=O)N(C)C)c1 (centres undefined),inactive
5,CC1(C)Cc2c(C#N)c(NCCO)nc(-c3ccco3)c2CO1,"inconclusive: 6.57 µM [inhibitor, partial curve]"
6,C=C(C)Cn1c(C(C)NC(=O)CCC)nc2ccccc21 (centres undefined),"inconclusive: 4.15 µM [inhibitor, partial curve, poor fit]"
7,CCCN(CC(=O)Nc1ccccc1C)C(=O)c1ccc2ccccc2n1,inactive
8,O=C(Nc1ccc(N2CCOCC2)c(S(=O)(=O)Nc2ccccc2Cl)c1)c1ccccc1,"inconclusive: 13.1 µM [inhibitor, single point]"
9,CCN1C(=O)[C@H]2[C@@H](c3ccc(-c4cccc(Cl)c4)c(OC)c3)N[C@@](Cc3ccccc3)(C(=O)OC)[C@H]2C1=O,active: 0.415 µM
10,CSc1nc(-c2ccco2)nn1S(=O)(=O)c1ccc(C)cc1,"inconclusive: 18.5 µM [inhibitor, single point]"
11,CCCNS(=O)(=O)c1cc(Br)cc2c1N(C(=O)CC)CC2,inactive
12,CCCCCCSc1cc(-c2nc3ccc(Cl)cn3c2NCCCC)ccc1OC,inactive
13,Cc1cccc(CN2C(=O)/C(=C\c3ccc(C(=O)NCCN4CCOCC4)cc3)Sc3ccccc32)c1,"inconclusive: 1.85 µM [inhibitor, single point]"
14,COc1ccccc1OCCNC(=O)C1CC(=O)N(c2ccc3c(c2)OCCO3)C1 (centres undefined),inactive
15,COCCCNC(=O)CSC1=Nc2ccccc2C2=NC(c3ccccc3)C(=O)N12 (centres undefined),"inconclusive: 3.7 µM [inhibitor, partial curve, poor fit]"
16,COc1cc(N)ccc1NC(=O)c1cc2ccccc2o1,"inconclusive: 13.1 µM [inhibitor, partial curve, poor fit]"
17,CCS(=O)(=O)Nc1ccc(C2=NN(C(=O)c3ccco3)C(c3ccc(C)cc3)C2)cc1 (centres undefined),"inconclusive: 8.28 µM [inhibitor, partial curve, poor fit]"
18,O=S(=O)(Nc1cccc(CCc2ccccn2)c1)c1ccc2ccccc2c1,"inconclusive: 0.828 µM [inhibitor, full curve, poor fit]"
19,O=S(=O)(CC(CN1CCCC1)N1CCCC1)c1ccc2ccccc2c1 (centres undefined),active: 4.15 µM
20,Cc1ccc(-c2noc(CSc3nnnn3-c3ccccc3)n2)cc1,"inconclusive: 18.5 µM [inhibitor, partial curve, poor fit]"
21,CCCCCCCOC1(c2ccccc2)OC(=O)c2ccccc21 (centres undefined),active: 6.57 µM
22,CCOCCCNC(=O)C(NC(=O)c1ccccc1O)c1ccc(Cl)cc1 (centres undefined),"inconclusive: 16.5 µM [inhibitor, single point]"

# An excerpt of these results, as tab-separated lines.
row	Structure (SMILES)	Potency
5	CC1(C)Cc2c(C#N)c(NCCO)nc(-c3ccco3)c2CO1	inconclusive: 6.57 µM [inhibitor, partial curve]
17	CCS(=O)(=O)Nc1ccc(C2=NN(C(=O)c3ccco3)C(c3ccc(C)cc3)C2)cc1 (centres undefined)	inconclusive: 8.28 µM [inhibitor, partial curve, poor fit]
19	O=S(=O)(CC(CN1CCCC1)N1CCCC1)c1ccc2ccccc2c1 (centres undefined)	active: 4.15 µM

# Next records.

row,Structure (SMILES),Potency
1,O=C1c2ccccc2NC(c2ccc(O)cc2)N1c1ccccc1 (centres undefined),"inconclusive: 18.5 µM [inhibitor, partial curve, poor fit]"
2,O=C(c1ccccc1F)N(Cc1ccccc1)C1CCS(=O)(=O)C1 (centres undefined),"inconclusive: 18.5 µM [inhibitor, single point]"
3,CCOC(=O)C(C)C(C)=O (centres undefined),"inconclusive: 16.5 µM [inhibitor, partial curve, poor fit]"
4,O=C(Nc1cc(Cl)ccc1N1CCCCC1)c1cccs1,"inconclusive: 0.329 µM [inhibitor, full curve, poor fit]"
5,Cc1cc(=O)oc2cc(OCC(=O)N3CCN(C(=O)c4ccco4)CC3)ccc12,inactive
6,Cc1ccc(CSCCNS(=O)(=O)c2ccc(C)cc2)cc1,"inconclusive: 14.7 µM [inhibitor, single point]"
7,N#CCc1nn2c3c(cnc2c1C#N)C(=O)CCC3,"inconclusive: 18.5 µM [inhibitor, single point]"
8,O=C(CSc1nnc(C2CC2)n1C1CC1)Nc1cccc(Br)c1,inactive
9,CC(=O)N1CCN(c2ccc(NC(=O)C(C)Oc3ccc(Cl)cc3Cl)cc2)CC1 (centres undefined),"inconclusive: 4.15 µM [inhibitor, partial curve, poor fit]"
10,CN1CCN(C(=O)C2=C[C@@H](c3ccc(Br)cc3)C[C@@H](OCc3ccc(CO)cc3)O2)CC1,"inconclusive: 2.94 µM [inhibitor, full curve, poor fit]"
11,O=C(Nc1cc(Cl)ccc1Oc1ccccc1)c1cnccn1,"inconclusive: 2.62 µM [inhibitor, full curve, poor fit]"
12,O=C1C=C(OCc2ccccc2)CN1,"inconclusive: 0.0828 µM [inhibitor, full curve, poor fit]"
13,Cc1ccc(C2C(/C=C3/SC(=S)NC3=O)=C(c3cccs3)Oc3ccccc32)cc1 (centres undefined),active: 9.28 µM
14,O=C(Nc1ccc(OC(F)(F)F)cc1)C1=NCCN1,inactive
15,Cc1cc(OCC(=O)NCc2ccccn2)c2c(C)c(C)c(=O)oc2c1,"inconclusive: 18.5 µM [inhibitor, single point]"
16,Cc1cccc(C)c1Nc1nnc(SCC(=O)NC(=O)c2cccn2C)s1,inactive
17,O=S(=O)(c1ccc(N2CCCC2c2nc3ccccc3s2)nc1)N1CCOCC1 (centres undefined),active: 11.7 µM
18,CCNC(=S)N1CCN(C(=O)c2ccco2)CC1,inactive
19,O=[N+]([O-])c1cc(S(=O)(=O)N2CCCC2)ccc1OCCOc1ccccc1,"inconclusive: 9.28 µM [inhibitor, single point]"
20,COc1ccc(N(CC(=O)N/N=C/c2ccc(-c3ccc([N+](=O)[O-])cc3)o2)S(=O)(=O)c2ccc(C)cc2)cc1Cl,"inconclusive: 14.7 µM [inhibitor, single point]"
21,Cc1ccccc1CS(=O)(=O)c1nnc([C@H](Cc2ccccc2)NC(=O)OC(C)(C)C)o1,"inconclusive: 18.5 µM [inhibitor, single point]"
22,CC(=O)Nc1ccc(OC(=O)c2cc3cc(Br)ccc3oc2=O)cc1,active: 4.15 µM
